The values that follow come from article PMC8497506.

For some assays here: A weaker result is weaker than the reference pair of the same experiment. For some assays here: For at least one entry, the source does not settle the construct or the ends of the probe. For some assays here: At least one verdict was read from the data and is not stated in words by the source.

What all share (assay): plate binding assay (ELONA)
In one series the target is Her2-his (UniProt P04626). The conditions noted are these: B1 probe binding twofold higher than this control; handle 3' iSp9-DBCO coupled to azide-PEG; 10 mM HEPES, 5 mM MgCl2, 5 mM KCl, pH 7.4, 0.1% Tween-20, 1% sheared salmon sperm DNA, 300 uM dextran sulfate; 60 min; temperature not stated; commercial protein; protein details: His tag; label: fluorescent FluoSphere.
A further series concerns the target Myoglobin (UniProt P68082). The conditions noted are these: 10 mM HEPES, 5 mM MgCl2, 5 mM KCl, pH 7.4, 0.1% Tween-20, 1% sheared salmon sperm DNA, 300 uM dextran sulfate, 60 min, temperature not stated, commercial protein.
The next series concerns his-tagged thrombin. The conditions noted are these: streptavidin-HRP detection; 5' biotin; 10 mM HEPES, 5 mM MgCl2, 5 mM KCl, pH 7.4, 0.1% Tween-20, 1% sheared salmon sperm DNA, 300 uM dextran sulfate; 60 min; temperature not stated; protein details: His tag; label: streptavidin conjugates or HRP; single-stranded DNA.

Regarding “CAAGCAGAAGACGGCATACGAGATTCAAGTGGTCATGTACTAGTCAA / ATCTCGTATGCCGTCTTCTGCTTG”, the binding result with Her2-his was “binds more weakly”. As to “CAAGCAGAAGACGGCATACGAGATCATGCTTCCCCAGGGAGATGGTTTGCCGGTGGGCAGGTTTAGGGTCTGCTCGGGATTGCGGAGGAACATGCGTCGCAAACGTGTAGATCTCGGTGGTCGCCGTATCATT [DBCO-B1 directly conjugated to nanoparticle]”, in the series with Myoglobin (lower than on-target, 5' DBCO-C7 coupled to azide-PEG, label: fluorescent FluoSphere, single-stranded DNA), the binding result is “binds more weakly”.

As for “CATGCTTCCCCAGGGAGATGGTTTGCCGGTGGGCAGGTTTAGGGTCTGCTCGGGATTGCGGAGGAACATGCGTCGCAAAC [Biotin-B1]”, in the series on his-tagged thrombin, the binding result is listed as “binds”.

Consider “CAAGCAGAAGACGGCATACGAGATCATGCTTCCCCAGGGAGATGGTTTGCCGGTGGGCAGGTTTAGGGTCTGCTCGGGATTGCGGAGGAACATGCGTCGCAAACGTGTAGATCTCGGTGGTCGCCGTATCATT / ATCTCGTATGCCGTCTTCTGCTTG [P7-B1 annealed to DBCO-P7 handle on Qdot 655]”, for which the binding result with Myoglobin (little off-target binding, handle 3' iSp9-DBCO coupled to azide-PEG, label: Qdot 655) is “binds more weakly”. “CAAGCAGAAGACGGCATACGAGATCATGCTTCCCCAGGGAGATGGTTTGCCGGTGGGCAGGTTTAGGGTCTGCTCGGGATTGCGGAGGAACATGCGTCGCAAACGTGTAGATCTCGGTGGTCGCCGTATCATT / ATCTCGTATGCCGTCTTCTGCTTG [P7-B1 annealed to DBCO-P7 handle on nanoparticle]”: the binding result with Myoglobin (off-target, little non-specific binding, handle 3' iSp9-DBCO coupled to azide-PEG, label: fluorescent FluoSphere) was “binds more weakly”.
